## Screening data, single-dose tests

The values are deposited in ChEMBL (CHEMBL3988442, “University of Dundee, Small-Polar-MMV Screening Library” (2021)).

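Assay of Toxoplasma gondii numbers, read through their beta-galactosidase reporter with a colour substrate. Tested at 50 µM. The record gives no direction; the compounds picked for IC50 retests had high values, so higher reads as fewer parasites. About 18,000 compounds were tested under these conditions; 0.94% (about 170) showed 50% or more at least once.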

Values are the deposited “Percent Effect”, in %. The record does not define 0% and 100%; most values in the screen are far below 50% and negative numbers occur (in some assays of this library far below -100). The compounds are a random part of those screened.

{"structure": "COc1cccc(C(=O)NCc2ccoc2C)n1", "Percent Effect": -7.419}
{"structure": "Nc1nnc(SCc2ccc(Cl)s2)[nH]1", "Percent Effect": 56.64}
{"structure": "Cc1n[nH]cc1C(F)(F)F", "Percent Effect": 36.95}
{"structure": "Cn1c(C(=O)N[C@H]2COC[C@@H]2O)cc2ccccc21", "Percent Effect": -0.9019}
{"structure": "CCNCC(=O)NC1CCS(=O)(=O)C1", "stereo": "stereo unspecified", "Percent Effect": 0.5017}
{"structure": "CC1CN(C(=O)CC2CCC2)c2ccccc2C(=O)N1", "stereo": "stereo unspecified", "Percent Effect": 4.563}
{"structure": "Cn1ccc(C2CCCCN2)n1", "stereo": "stereo unspecified", "Percent Effect": 11.07}
{"structure": "CCOC(=O)N1CCC(N)C1", "stereo": "stereo unspecified", "Percent Effect": -3.375}
{"structure": "COC(=O)C(NCc1nnnn1C1CC1)C(C)(C)C", "stereo": "stereo unspecified", "Percent Effect": 1.899}
{"structure": "COC1CCC(CCN)CC1", "stereo": "stereo unspecified", "Percent Effect": -27.62}
{"structure": "COCC(C)(CCO)NCc1nc(C)no1", "stereo": "stereo unspecified", "Percent Effect": 5.982}
{"structure": "Cn1ccnc1C1CCN(C(=O)NC(C)(C)C)CC1", "Percent Effect": 6.299}
{"structure": "CC(C)c1cccc(Cn2cc(F)ccc2=O)n1", "Percent Effect": 18.02}
{"structure": "CNC(C)CS(C)(=O)=O", "stereo": "stereo unspecified", "Percent Effect": 11.45}
{"structure": "N#Cc1cncc(Br)c1", "Percent Effect": 4.547}
{"structure": "OCC(c1ccc(Cl)cc1)N1CCNCC1", "stereo": "stereo unspecified", "Percent Effect": 36.52}
{"structure": "COc1ccc2cc(CN(C)C(C)=O)c(=O)[nH]c2c1", "Percent Effect": 6.316}
{"structure": "O=C1CCN(Cc2ccc(OC(F)F)c(Br)c2)CCN1", "Percent Effect": 0.8085}
{"structure": "O=C(c1cc(-c2ccco2)[nH]n1)N1CCOCC1", "Percent Effect": -30.65}
{"structure": "Oc1ccccc1N1CCN(Cc2ccccn2)CC1", "Percent Effect": -10.47}
{"structure": "COCCN(Cc1ccco1)C(=O)CCn1cccn1", "Percent Effect": -2.134}
{"structure": "CC(Nc1ncnc2c1cnn2C)c1ccncc1", "stereo": "stereo unspecified", "Percent Effect": 10.45}
{"structure": "O=C1CCCN1CCN1CCCC(CO)(CC2CC2)C1", "stereo": "stereo unspecified", "Percent Effect": 6.139}
{"structure": "CC(C)NCC1CCC(=O)N1", "stereo": "stereo unspecified", "Percent Effect": -9.927}
{"structure": "CC(=O)NCc1ccc(S(=O)(=O)NC2CCCCC2)s1", "Percent Effect": 1.313}
{"structure": "NC(=O)CCN1CCC(CN2CCCC2)CC1", "Percent Effect": -8.394}
{"structure": "OCC1(O)CCc2ccccc21", "stereo": "stereo unspecified", "Percent Effect": -15.73}
{"structure": "Cn1cc(CN2C[C@@H](F)C[C@H]2CN)cn1", "Percent Effect": -20.8}
{"structure": "NCc1cc2ccc(F)cc2[nH]c1=O", "Percent Effect": -10.91}
{"structure": "CC(C)(O)C(C)(C)CN", "Percent Effect": -14.12}
{"structure": "CN(C)C(=O)OCCN", "Percent Effect": -3.564}
{"structure": "COC(=O)Nc1ccc(S(=O)(=O)NC2CCNC2)cc1", "stereo": "stereo unspecified", "Percent Effect": -20.25}
{"structure": "CN(C)C(=O)CCn1nc2ccccn2c1=O", "Percent Effect": 0.2867}
{"structure": "CC(C)Sc1nnc(-c2cccnc2)o1", "Percent Effect": -1.028}